This is an account of results in publication doi:10.1101/2021.08.22.457283.

Results are given in words; binding and its absence hold for the method and conditions named. Binding seen in cells or lysates may run through a third protein. Binding calls can cover weak binding; strength is not graded here.

Assay [1] deals with T1, SPECC1L (human (endogenous in U2OS)) (UniProt Q69YQ0).
T1 sequence: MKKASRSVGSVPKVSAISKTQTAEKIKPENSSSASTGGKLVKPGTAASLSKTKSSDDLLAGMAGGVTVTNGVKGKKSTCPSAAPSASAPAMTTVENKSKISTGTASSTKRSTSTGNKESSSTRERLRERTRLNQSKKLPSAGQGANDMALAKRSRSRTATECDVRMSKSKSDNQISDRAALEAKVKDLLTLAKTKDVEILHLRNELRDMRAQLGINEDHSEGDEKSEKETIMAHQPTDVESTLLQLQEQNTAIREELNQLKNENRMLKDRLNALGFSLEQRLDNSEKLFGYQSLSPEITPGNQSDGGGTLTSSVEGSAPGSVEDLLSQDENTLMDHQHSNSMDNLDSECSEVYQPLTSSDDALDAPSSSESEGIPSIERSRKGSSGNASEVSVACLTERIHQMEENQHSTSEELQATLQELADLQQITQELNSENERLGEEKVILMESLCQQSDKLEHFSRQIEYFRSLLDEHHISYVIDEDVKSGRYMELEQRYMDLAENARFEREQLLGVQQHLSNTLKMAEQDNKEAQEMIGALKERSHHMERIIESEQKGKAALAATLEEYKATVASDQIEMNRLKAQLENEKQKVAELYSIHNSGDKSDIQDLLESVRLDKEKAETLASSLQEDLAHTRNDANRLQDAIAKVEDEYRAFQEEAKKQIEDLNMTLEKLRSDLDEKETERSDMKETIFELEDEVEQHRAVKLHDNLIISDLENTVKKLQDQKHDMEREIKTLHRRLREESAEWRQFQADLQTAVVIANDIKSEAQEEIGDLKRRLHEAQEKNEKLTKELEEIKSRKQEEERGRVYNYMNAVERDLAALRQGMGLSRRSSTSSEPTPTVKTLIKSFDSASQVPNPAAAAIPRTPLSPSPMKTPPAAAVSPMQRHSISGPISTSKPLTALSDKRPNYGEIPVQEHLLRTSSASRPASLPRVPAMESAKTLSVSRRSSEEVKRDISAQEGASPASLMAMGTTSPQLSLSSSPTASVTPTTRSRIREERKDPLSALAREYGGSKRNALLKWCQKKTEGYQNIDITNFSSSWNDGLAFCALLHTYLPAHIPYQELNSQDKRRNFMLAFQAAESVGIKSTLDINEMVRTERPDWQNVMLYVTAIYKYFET
The assay is described as follows: co-IP.

Assay [2] addresses T2, TWIST1 (mouse (endogenous in embryonic hindbrain tissue)) (UniProt P26687).
T2 sequence: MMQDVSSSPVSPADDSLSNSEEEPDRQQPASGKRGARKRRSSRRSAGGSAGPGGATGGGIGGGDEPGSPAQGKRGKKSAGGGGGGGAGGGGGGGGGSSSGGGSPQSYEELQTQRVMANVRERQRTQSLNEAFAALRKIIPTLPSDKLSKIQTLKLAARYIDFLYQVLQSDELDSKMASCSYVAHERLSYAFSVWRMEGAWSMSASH
Put plainly: co-IP.

On to E-CADHERIN (human (endogenous in U2OS)), for which, in assay [1], the binding result is “binds”.
Take α-CATENIN: the binding entry in assay [2] was “binds”.
